From the supplement of paper PMC7666118
This is one part of the list.

Sequences of proteins named here, by UniProt entry; tags and fusion partners are left off. A change or cut given only in a name is not applied to a line headed by its entry.
UniProt Q9NP72: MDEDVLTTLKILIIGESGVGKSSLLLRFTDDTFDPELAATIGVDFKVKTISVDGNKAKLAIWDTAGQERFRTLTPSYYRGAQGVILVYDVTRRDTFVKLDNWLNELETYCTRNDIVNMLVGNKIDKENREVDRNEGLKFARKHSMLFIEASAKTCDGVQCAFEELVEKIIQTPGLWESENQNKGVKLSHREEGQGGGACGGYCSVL
UniProt Q9NRW1: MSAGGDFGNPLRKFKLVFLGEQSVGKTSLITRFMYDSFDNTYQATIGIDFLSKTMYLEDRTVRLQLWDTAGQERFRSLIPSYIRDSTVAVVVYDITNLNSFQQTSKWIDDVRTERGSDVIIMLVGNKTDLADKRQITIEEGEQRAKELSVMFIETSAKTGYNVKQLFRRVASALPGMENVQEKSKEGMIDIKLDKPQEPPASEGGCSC
UniProt P25789: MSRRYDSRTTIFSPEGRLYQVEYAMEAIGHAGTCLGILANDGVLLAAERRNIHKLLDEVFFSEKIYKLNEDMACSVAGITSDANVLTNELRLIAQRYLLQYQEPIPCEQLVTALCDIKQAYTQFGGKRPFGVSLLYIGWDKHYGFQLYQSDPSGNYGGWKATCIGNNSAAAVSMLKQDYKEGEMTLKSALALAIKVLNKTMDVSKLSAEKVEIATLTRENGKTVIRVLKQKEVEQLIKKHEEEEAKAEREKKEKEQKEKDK
UniProt P08575: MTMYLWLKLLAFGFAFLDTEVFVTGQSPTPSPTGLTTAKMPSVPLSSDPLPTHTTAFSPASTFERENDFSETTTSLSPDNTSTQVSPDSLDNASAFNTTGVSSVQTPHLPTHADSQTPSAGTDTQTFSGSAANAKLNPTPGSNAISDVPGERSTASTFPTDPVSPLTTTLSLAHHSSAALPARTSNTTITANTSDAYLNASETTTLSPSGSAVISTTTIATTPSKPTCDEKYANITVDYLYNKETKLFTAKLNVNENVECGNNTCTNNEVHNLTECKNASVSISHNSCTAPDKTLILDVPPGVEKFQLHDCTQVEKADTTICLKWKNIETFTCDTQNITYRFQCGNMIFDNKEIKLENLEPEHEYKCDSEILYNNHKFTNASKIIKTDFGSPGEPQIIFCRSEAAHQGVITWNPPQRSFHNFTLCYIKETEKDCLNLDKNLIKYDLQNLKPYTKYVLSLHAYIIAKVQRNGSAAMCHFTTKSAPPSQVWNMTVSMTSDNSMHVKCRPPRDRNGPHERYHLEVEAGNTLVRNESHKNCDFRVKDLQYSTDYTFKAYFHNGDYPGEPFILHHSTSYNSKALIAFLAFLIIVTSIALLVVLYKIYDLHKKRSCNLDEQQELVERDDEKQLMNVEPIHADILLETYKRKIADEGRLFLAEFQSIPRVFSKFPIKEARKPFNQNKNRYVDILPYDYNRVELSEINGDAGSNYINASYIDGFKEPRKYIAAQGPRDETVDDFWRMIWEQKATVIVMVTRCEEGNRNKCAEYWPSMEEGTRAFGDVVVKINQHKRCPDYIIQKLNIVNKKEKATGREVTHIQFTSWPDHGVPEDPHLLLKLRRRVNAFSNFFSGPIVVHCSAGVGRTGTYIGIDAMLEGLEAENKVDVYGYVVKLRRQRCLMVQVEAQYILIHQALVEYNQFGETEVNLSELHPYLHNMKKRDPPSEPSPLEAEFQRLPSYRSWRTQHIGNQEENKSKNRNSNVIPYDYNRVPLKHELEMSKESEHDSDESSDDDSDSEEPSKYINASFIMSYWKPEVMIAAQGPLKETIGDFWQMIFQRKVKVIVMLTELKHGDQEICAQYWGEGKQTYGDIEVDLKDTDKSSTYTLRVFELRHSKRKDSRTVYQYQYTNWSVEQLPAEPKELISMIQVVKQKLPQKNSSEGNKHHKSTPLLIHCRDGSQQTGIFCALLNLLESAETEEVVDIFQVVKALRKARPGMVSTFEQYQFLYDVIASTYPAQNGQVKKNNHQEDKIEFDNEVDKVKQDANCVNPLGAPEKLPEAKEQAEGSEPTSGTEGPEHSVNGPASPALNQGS
UniProt P49720: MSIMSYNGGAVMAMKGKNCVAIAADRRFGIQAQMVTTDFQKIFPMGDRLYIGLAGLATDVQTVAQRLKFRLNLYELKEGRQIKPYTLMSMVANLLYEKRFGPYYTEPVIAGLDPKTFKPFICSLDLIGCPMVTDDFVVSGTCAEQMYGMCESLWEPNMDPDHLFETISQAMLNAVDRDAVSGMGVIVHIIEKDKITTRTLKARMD
UniProt Q15907: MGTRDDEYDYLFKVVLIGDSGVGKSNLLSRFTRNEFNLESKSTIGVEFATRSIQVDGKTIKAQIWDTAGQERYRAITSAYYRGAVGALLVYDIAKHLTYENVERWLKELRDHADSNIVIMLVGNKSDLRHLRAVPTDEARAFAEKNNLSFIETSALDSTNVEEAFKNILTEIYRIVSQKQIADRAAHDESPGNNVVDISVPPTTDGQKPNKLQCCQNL
UniProt P62820, whole entry: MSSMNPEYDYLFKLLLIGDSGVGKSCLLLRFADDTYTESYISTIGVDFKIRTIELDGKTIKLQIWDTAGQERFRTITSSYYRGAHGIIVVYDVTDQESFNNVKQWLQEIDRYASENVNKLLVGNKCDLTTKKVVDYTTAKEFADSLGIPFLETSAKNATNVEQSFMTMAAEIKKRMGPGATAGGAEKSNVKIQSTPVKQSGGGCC
UniProt O95716: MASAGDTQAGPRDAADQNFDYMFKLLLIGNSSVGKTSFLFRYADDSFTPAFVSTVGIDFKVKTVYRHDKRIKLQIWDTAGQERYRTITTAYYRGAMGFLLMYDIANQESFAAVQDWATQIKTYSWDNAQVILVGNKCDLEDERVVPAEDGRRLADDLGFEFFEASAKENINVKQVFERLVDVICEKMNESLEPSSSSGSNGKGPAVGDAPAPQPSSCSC
UniProt P11233: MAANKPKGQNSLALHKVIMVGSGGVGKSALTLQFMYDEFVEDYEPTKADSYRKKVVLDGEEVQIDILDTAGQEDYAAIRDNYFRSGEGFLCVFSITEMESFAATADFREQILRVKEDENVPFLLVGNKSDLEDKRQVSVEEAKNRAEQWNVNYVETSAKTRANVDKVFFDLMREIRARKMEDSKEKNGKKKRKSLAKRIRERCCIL
UniProt P60484: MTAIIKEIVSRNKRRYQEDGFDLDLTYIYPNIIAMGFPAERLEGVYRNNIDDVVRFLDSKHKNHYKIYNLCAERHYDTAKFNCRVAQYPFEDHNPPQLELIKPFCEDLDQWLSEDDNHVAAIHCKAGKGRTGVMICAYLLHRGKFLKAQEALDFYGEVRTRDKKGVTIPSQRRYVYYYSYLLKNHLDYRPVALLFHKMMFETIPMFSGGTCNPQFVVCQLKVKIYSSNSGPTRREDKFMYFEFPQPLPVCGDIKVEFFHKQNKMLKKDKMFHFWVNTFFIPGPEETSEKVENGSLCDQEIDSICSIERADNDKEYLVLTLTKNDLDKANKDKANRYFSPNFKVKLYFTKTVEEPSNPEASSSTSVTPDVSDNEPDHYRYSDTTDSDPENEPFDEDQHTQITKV
UniProt Q15274: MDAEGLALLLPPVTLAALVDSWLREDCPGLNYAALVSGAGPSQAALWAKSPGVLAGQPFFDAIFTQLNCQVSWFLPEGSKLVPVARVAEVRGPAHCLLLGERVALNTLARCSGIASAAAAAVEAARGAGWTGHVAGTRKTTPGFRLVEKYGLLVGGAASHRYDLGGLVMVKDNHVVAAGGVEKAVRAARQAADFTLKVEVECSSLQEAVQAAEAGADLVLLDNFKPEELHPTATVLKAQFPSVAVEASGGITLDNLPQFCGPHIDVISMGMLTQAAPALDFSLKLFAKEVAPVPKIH
UniProt P40306: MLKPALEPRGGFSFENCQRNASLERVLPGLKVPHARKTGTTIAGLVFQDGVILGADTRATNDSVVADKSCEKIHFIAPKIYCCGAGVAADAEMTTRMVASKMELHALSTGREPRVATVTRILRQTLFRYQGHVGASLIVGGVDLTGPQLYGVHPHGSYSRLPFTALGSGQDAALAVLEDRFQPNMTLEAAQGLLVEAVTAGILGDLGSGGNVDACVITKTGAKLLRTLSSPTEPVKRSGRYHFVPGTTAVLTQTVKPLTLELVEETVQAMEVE
UniProt Q9Y2R2, whole entry: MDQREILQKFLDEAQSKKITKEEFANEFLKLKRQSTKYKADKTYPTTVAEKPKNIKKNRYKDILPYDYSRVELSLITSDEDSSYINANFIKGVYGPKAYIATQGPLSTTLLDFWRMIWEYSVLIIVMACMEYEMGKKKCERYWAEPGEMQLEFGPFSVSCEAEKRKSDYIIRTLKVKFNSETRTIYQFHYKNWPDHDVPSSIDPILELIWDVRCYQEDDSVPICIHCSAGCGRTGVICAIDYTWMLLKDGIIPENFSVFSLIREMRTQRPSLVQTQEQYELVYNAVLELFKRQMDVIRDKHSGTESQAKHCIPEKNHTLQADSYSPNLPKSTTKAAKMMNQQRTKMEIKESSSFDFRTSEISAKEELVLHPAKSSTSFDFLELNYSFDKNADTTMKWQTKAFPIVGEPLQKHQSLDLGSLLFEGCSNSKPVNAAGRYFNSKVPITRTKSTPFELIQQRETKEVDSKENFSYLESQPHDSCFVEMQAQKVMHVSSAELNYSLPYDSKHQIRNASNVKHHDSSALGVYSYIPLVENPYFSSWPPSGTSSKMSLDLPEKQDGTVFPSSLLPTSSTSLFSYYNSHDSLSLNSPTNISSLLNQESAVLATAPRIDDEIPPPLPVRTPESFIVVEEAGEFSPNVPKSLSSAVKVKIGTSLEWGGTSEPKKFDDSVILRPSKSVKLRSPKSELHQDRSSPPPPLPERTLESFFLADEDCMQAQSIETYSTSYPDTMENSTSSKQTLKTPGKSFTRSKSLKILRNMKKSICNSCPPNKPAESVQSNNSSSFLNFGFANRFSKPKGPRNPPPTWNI
UniProt Q96I25: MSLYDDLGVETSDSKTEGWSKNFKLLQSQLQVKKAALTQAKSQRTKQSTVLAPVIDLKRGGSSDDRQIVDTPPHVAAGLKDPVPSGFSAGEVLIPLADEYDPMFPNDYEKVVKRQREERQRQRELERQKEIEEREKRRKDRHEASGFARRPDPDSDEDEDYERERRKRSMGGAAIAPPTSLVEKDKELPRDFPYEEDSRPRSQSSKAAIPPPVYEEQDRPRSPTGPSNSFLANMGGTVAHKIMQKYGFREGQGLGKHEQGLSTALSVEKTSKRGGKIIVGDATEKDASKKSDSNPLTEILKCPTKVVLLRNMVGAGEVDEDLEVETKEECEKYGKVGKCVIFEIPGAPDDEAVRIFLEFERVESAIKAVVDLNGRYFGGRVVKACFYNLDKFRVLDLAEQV
UniProt O60671: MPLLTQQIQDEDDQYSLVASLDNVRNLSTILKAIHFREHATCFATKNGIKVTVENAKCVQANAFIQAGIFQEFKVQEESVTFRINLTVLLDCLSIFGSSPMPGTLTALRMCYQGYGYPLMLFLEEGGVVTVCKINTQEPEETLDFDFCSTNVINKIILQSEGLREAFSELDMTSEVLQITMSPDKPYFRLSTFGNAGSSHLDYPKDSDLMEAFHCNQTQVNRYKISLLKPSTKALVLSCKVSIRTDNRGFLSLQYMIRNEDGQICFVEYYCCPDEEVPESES
UniProt Q9UNM6: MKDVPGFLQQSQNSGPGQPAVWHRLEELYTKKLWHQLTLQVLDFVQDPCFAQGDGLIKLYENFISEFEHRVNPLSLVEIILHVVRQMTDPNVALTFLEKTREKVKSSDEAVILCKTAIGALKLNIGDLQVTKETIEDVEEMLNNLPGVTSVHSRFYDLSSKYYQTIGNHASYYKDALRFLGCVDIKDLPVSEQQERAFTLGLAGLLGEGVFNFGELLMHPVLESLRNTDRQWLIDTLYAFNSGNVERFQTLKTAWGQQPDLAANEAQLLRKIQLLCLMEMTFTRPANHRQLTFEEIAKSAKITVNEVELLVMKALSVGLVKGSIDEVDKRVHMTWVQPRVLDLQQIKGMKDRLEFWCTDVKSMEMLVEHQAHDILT
UniProt Q15291, whole entry: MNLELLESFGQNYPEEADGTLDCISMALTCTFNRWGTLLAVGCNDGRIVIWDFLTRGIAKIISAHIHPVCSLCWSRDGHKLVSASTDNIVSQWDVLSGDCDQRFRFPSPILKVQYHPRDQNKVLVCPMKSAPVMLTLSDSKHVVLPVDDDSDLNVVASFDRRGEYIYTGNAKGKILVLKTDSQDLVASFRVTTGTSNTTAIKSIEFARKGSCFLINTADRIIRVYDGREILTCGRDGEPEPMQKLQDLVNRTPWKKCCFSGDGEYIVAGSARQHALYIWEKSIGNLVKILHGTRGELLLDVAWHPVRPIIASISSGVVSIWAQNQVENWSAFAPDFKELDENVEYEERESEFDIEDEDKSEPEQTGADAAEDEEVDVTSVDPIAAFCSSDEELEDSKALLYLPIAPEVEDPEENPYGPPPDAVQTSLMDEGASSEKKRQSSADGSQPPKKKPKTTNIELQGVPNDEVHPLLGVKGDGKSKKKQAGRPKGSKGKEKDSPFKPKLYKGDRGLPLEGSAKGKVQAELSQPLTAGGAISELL
UniProt Q9BT73: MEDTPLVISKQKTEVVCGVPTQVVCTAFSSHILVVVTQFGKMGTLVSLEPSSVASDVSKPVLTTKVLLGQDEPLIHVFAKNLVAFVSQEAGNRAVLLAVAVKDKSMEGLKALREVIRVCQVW

compound: COc1ccc(Cn2ccc3ccc(C(=O)NO)cc32)cc1; test: dose-dependent thermal stabilisation call (2D-TPP, DLPTP, 10% FDR) (binary (1 = stabilised)); higher = stabilised by the compound; settings: system: HL-60 intact cells; concentration range 0.04-10 µM

Row | Target | dose-dependent thermal stabilisation call
1 | RAB18 (UniProt Q9NP72) | inactive: 0
2 | QRICH1 (UniProt Q2TAL8) | inactive: 0
3 | PTDSS1 (UniProt P48651) | inactive: 0
4 | RAB6B (UniProt Q9NRW1) | inactive: 0
5 | PSMA4 (UniProt P25789) | inactive: 0
6 | RAB22A (UniProt Q9UL26) | inactive: 0
7 | PTPRC (UniProt P08575) | inactive: 0
8 | PSMB3 (UniProt P49720) | inactive: 0
9 | RAB11B (UniProt Q15907) | inactive: 0
10 | RAB1A (UniProt P62820) | inactive: 0
11 | PRNP | inactive: 0
12 | RAB3D (UniProt O95716) | inactive: 0
13 | RALA (UniProt P11233) | inactive: 0
14 | PSMB9 (UniProt P28065) | inactive: 0
15 | RAB28 (UniProt P51157) | inactive: 0
16 | PTEN (UniProt P60484) | inactive: 0
17 | QPRT (UniProt Q15274) | inactive: 0
18 | PSMB10 (UniProt P40306) | inactive: 0
19 | PTPN22 (UniProt Q9Y2R2) | inactive: 0
20 | RBM17 (UniProt Q96I25) | inactive: 0
21 | RAD1 (UniProt O60671) | inactive: 0
22 | PSMD13 (UniProt Q9UNM6) | inactive: 0
23 | PTDSS2 (UniProt Q9BVG9) | inactive: 0
24 | RAD51L1 (UniProt O15315) | inactive: 0
25 | RBBP5 (UniProt Q15291) | inactive: 0
26 | PSMD2 (UniProt Q13200) | inactive: 0
27 | PSMG3 (UniProt Q9BT73) | inactive: 0

2 entries drawn at random from the list so far:
Row | Target | dose-dependent thermal stabilisation call
15 | RAB28 (UniProt P51157) | inactive: 0
5 | PSMA4 (UniProt P25789) | inactive: 0
